# Library screen at single concentrations

Sequences of proteins named here, by UniProt entry; tags and fusion partners are left off. Residues count along the entry.
UniProt I6X8D2, whole entry: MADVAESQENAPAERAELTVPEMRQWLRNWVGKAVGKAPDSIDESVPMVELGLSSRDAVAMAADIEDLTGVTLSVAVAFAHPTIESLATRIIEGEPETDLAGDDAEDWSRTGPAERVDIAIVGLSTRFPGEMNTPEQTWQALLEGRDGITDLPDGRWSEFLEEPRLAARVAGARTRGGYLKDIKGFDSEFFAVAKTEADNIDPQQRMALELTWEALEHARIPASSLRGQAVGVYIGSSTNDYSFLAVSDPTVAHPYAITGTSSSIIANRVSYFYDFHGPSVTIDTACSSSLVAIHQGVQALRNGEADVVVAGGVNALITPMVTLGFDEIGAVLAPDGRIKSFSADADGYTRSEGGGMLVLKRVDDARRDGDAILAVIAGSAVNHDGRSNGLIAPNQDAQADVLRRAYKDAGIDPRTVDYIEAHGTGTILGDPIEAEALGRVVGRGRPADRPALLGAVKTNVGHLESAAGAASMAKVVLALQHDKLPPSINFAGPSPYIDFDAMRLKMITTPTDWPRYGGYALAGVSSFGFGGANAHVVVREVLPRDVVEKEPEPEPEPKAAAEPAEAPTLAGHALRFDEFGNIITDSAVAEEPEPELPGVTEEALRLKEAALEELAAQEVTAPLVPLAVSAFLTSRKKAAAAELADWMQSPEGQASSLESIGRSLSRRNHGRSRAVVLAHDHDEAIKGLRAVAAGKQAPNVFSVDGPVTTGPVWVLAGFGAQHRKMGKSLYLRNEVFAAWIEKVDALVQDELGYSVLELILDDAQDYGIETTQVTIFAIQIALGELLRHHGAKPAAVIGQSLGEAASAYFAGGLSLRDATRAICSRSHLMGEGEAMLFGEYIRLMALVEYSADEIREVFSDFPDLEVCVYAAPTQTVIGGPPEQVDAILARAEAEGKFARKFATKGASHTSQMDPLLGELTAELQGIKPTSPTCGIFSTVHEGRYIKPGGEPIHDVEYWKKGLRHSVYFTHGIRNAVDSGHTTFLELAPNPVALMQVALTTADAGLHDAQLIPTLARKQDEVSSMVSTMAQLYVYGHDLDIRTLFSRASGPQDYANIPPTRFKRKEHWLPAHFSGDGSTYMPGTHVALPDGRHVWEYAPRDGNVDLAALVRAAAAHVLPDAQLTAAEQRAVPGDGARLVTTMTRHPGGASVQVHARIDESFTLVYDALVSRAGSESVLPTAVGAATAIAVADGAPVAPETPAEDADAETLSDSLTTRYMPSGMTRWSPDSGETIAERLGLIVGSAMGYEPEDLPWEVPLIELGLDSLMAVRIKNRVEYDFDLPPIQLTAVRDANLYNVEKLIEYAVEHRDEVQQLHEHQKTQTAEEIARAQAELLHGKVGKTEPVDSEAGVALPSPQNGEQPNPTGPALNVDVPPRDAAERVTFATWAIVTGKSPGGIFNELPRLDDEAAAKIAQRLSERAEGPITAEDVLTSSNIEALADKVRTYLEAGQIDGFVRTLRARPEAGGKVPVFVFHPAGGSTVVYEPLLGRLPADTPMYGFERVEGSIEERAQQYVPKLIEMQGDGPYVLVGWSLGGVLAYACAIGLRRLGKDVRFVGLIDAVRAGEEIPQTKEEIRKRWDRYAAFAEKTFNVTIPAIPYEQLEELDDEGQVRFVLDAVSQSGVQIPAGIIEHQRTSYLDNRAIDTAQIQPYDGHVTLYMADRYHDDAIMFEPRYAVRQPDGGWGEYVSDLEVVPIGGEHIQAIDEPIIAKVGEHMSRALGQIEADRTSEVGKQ
UniProt A4I591, 1-473: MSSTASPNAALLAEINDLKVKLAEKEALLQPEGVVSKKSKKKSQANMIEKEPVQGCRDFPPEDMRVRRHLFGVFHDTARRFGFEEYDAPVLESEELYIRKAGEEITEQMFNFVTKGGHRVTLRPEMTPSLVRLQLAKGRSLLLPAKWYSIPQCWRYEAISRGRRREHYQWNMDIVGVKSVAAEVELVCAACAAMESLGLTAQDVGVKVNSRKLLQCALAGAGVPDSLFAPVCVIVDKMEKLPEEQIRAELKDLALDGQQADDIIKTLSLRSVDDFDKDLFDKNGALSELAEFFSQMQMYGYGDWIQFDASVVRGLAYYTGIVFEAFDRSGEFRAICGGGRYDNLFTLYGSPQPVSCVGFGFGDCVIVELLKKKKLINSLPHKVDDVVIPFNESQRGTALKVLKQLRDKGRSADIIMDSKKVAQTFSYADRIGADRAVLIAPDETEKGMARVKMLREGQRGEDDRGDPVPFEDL

Leishmania in macrophages: 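Cell assay of Leishmania donovani living inside macrophages; the read-out is not stated. Tested at 30 µM. The record gives no direction; compounds that gave an IC50 in retests scored well above the rest, so higher reads as stronger inhibition. Of about 69,000 compounds tested this way, about 1,000 (1.5%) reached 50% or more in at least one test.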
Pks13 thioesterase: 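Enzyme assay of the thioesterase domain of polyketide synthase 13; the read-out is not stated. Target: Polyketide synthase Pks13, Mycobacterium tuberculosis (UniProt I6X8D2). Concentration: 30 µM. The record gives no direction; the compounds picked for IC50 retests had high values, so higher reads as stronger inhibition. Size under these conditions: about 67,000 compounds, about 300 of them at 50% or above in at least one test.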
LiHisRS: 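Enzyme assay of histidyl-tRNA synthetase; the read-out is not stated. Target: Histidine-tRNA ligase, Leishmania infantum (UniProt A4I591). Concentration: 30 µM. Direction is inferred from retests: higher values go with stronger inhibition. The assay is labelled LdHisRS but filed under L. infantum. Of about 69,000 compounds tested this way, about 410 (0.6%) reached 50% or more in at least one test.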

Values are the deposited “Percent Effect”, in %.
The record does not define 0% and 100%; most values in the screen are far below 50% and negative numbers occur (in some assays of this library far below -100).
This is an unselected part of the compounds tested.

O=C(O)C(F)(F)F.[H][C@@]12CCN(Cc3ccc(C)s3)[C@]1([H])CC[C@H](C(=O)N1CCCO1)O2 gave Leishmania in macrophages: 10.36%.
CCc1nccn1-c1cncc(C2CCN(C(=O)COC)CC2)n1 gave Leishmania in macrophages: 14.74%; Pks13 thioesterase: 2.539%; LiHisRS: 10.34%.
Cn1ccnc1C(NCc1csc(Br)c1)c1ccccc1 (stereo unspecified) gave Leishmania in macrophages: 31.24%; Pks13 thioesterase: -12.69%; LiHisRS: 24.62%.
Cc1ccc(CNC(=O)C2CCNC(=O)C2)c(OCCC(C)C)c1 (stereo unspecified) gave Leishmania in macrophages: -20.69%; Pks13 thioesterase: 1.441%; LiHisRS: 5.319%.
CC(C)Cc1nc(CN2CCC(N3CCN(C)C3=O)CC2)no1 gave Leishmania in macrophages: 11.82%; Pks13 thioesterase: -7.054%; LiHisRS: 2.857%.
Cc1ncc(CN(C)C2CCCN(c3cccnn3)C2)s1 (stereo unspecified) gave Leishmania in macrophages: -17.46%; Pks13 thioesterase: -7.196%; LiHisRS: 6.742%.
CCNC(=O)C1CCN(c2cc(CC)nc3ccnn23)C1 (stereo unspecified) gave Leishmania in macrophages: -17.41%; Pks13 thioesterase: 20.35%; LiHisRS: 23.08%.
Cc1ccc(CN2C[C@H]3OC(=O)N(Cc4ccccn4)[C@H]3C2)o1 gave Pks13 thioesterase: -4.585%; LiHisRS: 2.667%.
CC(C)OCC(=O)Nc1ccc(Oc2ccc3c(c2)OCO3)nc1 gave Leishmania in macrophages: -54.84%; Pks13 thioesterase: -3.323%; LiHisRS: 21.74%.
Cc1cccc(C(=O)N2CCCC2)c1NCC(=O)NC1(C#N)CCCC1 gave Leishmania in macrophages: -2.363%; Pks13 thioesterase: -4.387%; LiHisRS: 12.68%.
Cc1cc2nc(C(C)C)cc(NC(C)c3nncn3C)n2n1 (stereo unspecified) gave Leishmania in macrophages: 1.083%; Pks13 thioesterase: -6.711%; LiHisRS: 10.2%.
CCN1CC2(CCNCC2)COc2ccccc2S1(=O)=O.O=C(O)C(F)(F)F gave Leishmania in macrophages: 13.53%.
CN1C[C@H]2CCN(C(=O)NC3CCCC3)CC[C@H]2S1(=O)=O gave Pks13 thioesterase: -26.34%; LiHisRS: -1.942%.
Cc1ccccc1OCCCNC(=O)C1(C)CC(=O)N2C=CC=CC2=N1 (stereo unspecified) gave Leishmania in macrophages: 12.44%; Pks13 thioesterase: -5.444%; LiHisRS: 12.08%.
Cc1nc(C2CCCN(C(=O)c3ccoc3)C2)no1 (stereo unspecified) gave Leishmania in macrophages: 21.46%; Pks13 thioesterase: -11.76%; LiHisRS: 10.26%.
O=C(NCCc1ccncc1)c1ccc(N2CCOCC2)cc1 gave Leishmania in macrophages: 34.03%; Pks13 thioesterase: -10.34%; LiHisRS: 15.25%.
CCCOc1ccc(C(=O)N2C[C@@H](CN3CCCC3)[C@@H](CO)C2)cc1Cl gave Leishmania in macrophages: -17.31%; Pks13 thioesterase: -4.451%; LiHisRS: 4.167%.
COc1ccc(Cn2c(C3CCNCC3)cc3cccnc32)cc1 gave LiHisRS: 9.859%.
Cc1cc(CN(C)C(=O)C2CCCN(C(N)=O)C2)no1 (stereo unspecified) gave Leishmania in macrophages: -0.7168%; Pks13 thioesterase: -15.05%; LiHisRS: 24.73%.
O=C(COC[C@H]1CC[C@H]2[C@H](CCN2c2ccccn2)O1)N1CCCC1 gave Pks13 thioesterase: -2.561%; LiHisRS: 22.22%.
CC(C)c1nnc2n1CCN(C(=O)c1cccc(S(C)(=O)=O)c1)C2 gave Leishmania in macrophages: -0.6972%; Pks13 thioesterase: -32.54%; LiHisRS: 8.929%.
O=C(CCc1nccs1)N1CCN(c2ncccn2)CC1 gave Leishmania in macrophages: 4.426%; Pks13 thioesterase: -19.7%; LiHisRS: 2.667%.
Cn1nnc2c1C(COCC1CC1)CN(C(=O)CC1=CCCCC1)C2 (stereo unspecified) gave Leishmania in macrophages: 4.457%; Pks13 thioesterase: -9.376%; LiHisRS: 14%.

The last 2 entries again:

SMILES,Leishmania in macrophages,Pks13 thioesterase,LiHisRS
O=C(CCc1nccs1)N1CCN(c2ncccn2)CC1,4.426,-19.7,2.667
Cn1nnc2c1C(COCC1CC1)CN(C(=O)CC1=CCCCC1)C2 (stereo unspecified),4.457,-9.376,14

Data taken from ChEMBL document CHEMBL3988442, “University of Dundee, Small-Polar-MMV Screening Library” (2021).